# Literature values as cited in EP0335902B1, “MONOMERIC PHTHALOCYANINE REAGENTS” (BRITISH TECHNOLOGY GROUP USA INC., priority 1986, dated 1988).
# For at least one compound, name, drawing or mass did not settle the structure.
# Conditions: cited from earlier work
structure (smiles),measurement,value
"O=C1OC2(c3ccc(O)cc3Oc3cc(O)ccc32)c2ccccc21 [F, fluorescein]",QY (quantum yield),0.5
